Experimental data: PubChem BioAssay AID1508597 (Cure First, 2020)

- Assay: 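Knock-downs altering ovarian cancer cell survival with or without PARP inhibitor rucaparib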 (primary screen)
- System: human ovarian carcinoma lines grown from tumours: OCI-P5x (papillary serous) and OCI-C5x (clear cell)
- Reagent: siRNA pool against human genes, 1.25 pmol siRNA per well
- Time to read-out: 72 h or 96 h, depending on the cell culture
- Conditions: rucaparib 20 µM (about IC30) or vehicle, present until read-out
- Rucaparib or vehicle: Vehicle
- Cell line: OCI-P5x (serous)
- Measured: 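ATP luminescence measured at 72 or 96 h according to the culture, then normalised and expressed as percent viability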
- Scale: viability, normalised: higher = more viable cells remaining
- Active means: 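a well counts as a hit if its normalised viability is under 80 percent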
- Meaning of the calls: active = viability under 80%; inactive = viability 80% or more
This is a random part of the about 2,100 reagents, in one setting of the screen. 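Calls flag viability under 80% in either arm, not effects specific to rucaparib; the reference for percent is not stated.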 A reagent listed more than once was tested more than once; the source does not tell the runs apart. Not given: the 100% reference.

For BBS7 (Bardet-Biedl syndrome 7) [SID405528021], technical replicate 1, the values are viability, normalised (%) = 58.9; active.
With BBS7 (Bardet-Biedl syndrome 7) [SID405528021], technical replicate 2, the entry reads viability, normalised (%) = 68.3; active.
For BBS7 (Bardet-Biedl syndrome 7) [SID405528021], technical replicate 3, the values are viability, normalised (%) = 80.2; inactive.
With TSTD1 (thiosulfate sulfurtransferase like domain containing 1) [SID405526662], technical replicate 1, the values are viability, normalised (%) = 55.1; active.
For TSTD1 (thiosulfate sulfurtransferase like domain containing 1) [SID405526662], technical replicate 2, the values are viability, normalised (%) = 61.5; active.
TSTD1 (thiosulfate sulfurtransferase like domain containing 1) [SID405526662], technical replicate 3 scored viability, normalised (%) = 46.6; active.
With PRMT2 (protein arginine methyltransferase 2) [SID405527201], technical replicate 1 the deposit lists viability, normalised (%) = 48.1; active.
With PRMT2 (protein arginine methyltransferase 2) [SID405527201], technical replicate 2, the values are viability, normalised (%) = 76.9; active.
For PRMT2 (protein arginine methyltransferase 2) [SID405527201], technical replicate 3 the deposit lists viability, normalised (%) = 101; inactive.
With EYA2 (EYA transcriptional coactivator and phosphatase 2) [SID405526769], technical replicate 1, the entry reads viability, normalised (%) = 60.1; active.
For EYA2 (EYA transcriptional coactivator and phosphatase 2) [SID405526769], technical replicate 2, the entry reads viability, normalised (%) = 56.8; active.
For EYA2 (EYA transcriptional coactivator and phosphatase 2) [SID405526769], technical replicate 3 the deposit lists viability, normalised (%) = 59.1; active.
With CHMP4B (charged multivesicular body protein 4B) [SID405528116], technical replicate 1 the deposit lists viability, normalised (%) = 65.2; active.
With CHMP4B (charged multivesicular body protein 4B) [SID405528116], technical replicate 2, the entry reads viability, normalised (%) = 93.4; inactive.
CHMP4B (charged multivesicular body protein 4B) [SID405528116], technical replicate 3 scored viability, normalised (%) = 78.2; active.
EPHA4 (EPH receptor A4) [SID405527381], technical replicate 1 scored viability, normalised (%) = 85.7; inactive.
For EPHA4 (EPH receptor A4) [SID405527381], technical replicate 2, the entry reads viability, normalised (%) = 92.3; inactive.
With EPHA4 (EPH receptor A4) [SID405527381], technical replicate 3 the deposit lists viability, normalised (%) = 91.4; inactive.

Not a retest: 4 of the entries above.
PRMT2 (protein arginine methyltransferase 2) [SID405527201], technical replicate 2 | viability, normalised (%) = 76.9; Call = active
PRMT2 (protein arginine methyltransferase 2) [SID405527201], technical replicate 3 | viability, normalised (%) = 101; Call = inactive
EYA2 (EYA transcriptional coactivator and phosphatase 2) [SID405526769], technical replicate 1 | viability, normalised (%) = 60.1; Call = active
EYA2 (EYA transcriptional coactivator and phosphatase 2) [SID405526769], technical replicate 2 | viability, normalised (%) = 56.8; Call = active

The results go on.
DPH7 (diphthamide biosynthesis 7) [SID405526625], technical replicate 1 gave viability, normalised (%) = 70.3; active.
DPH7 (diphthamide biosynthesis 7) [SID405526625], technical replicate 2 showed viability, normalised (%) = 72; active.
With DPH7 (diphthamide biosynthesis 7) [SID405526625], technical replicate 3, the entry reads viability, normalised (%) = 69.3; active.
For KDM3B (lysine demethylase 3B) [SID405526932], technical replicate 1, the entry reads viability, normalised (%) = 53.5; active.
KDM3B (lysine demethylase 3B) [SID405526932], technical replicate 2 scored viability, normalised (%) = 59.6; active.
For KDM3B (lysine demethylase 3B) [SID405526932], technical replicate 3, the values are viability, normalised (%) = 61.4; active.
STK31 (serine/threonine kinase 31) [SID405526502], technical replicate 1 gave viability, normalised (%) = 85.8; inactive.
For STK31 (serine/threonine kinase 31) [SID405526502], technical replicate 1, the entry reads viability, normalised (%) = 48.2; active.
For STK31 (serine/threonine kinase 31) [SID405526502], technical replicate 2, the entry reads viability, normalised (%) = 83.6; inactive.
STK31 (serine/threonine kinase 31) [SID405526502], technical replicate 2 showed viability, normalised (%) = 60.1; active.
For STK31 (serine/threonine kinase 31) [SID405526502], technical replicate 3 the deposit lists viability, normalised (%) = 80.7; inactive.
For STK31 (serine/threonine kinase 31) [SID405526502], technical replicate 3, the values are viability, normalised (%) = 75.1; active.
With EPHB4 (EPH receptor B4) [SID405527533], technical replicate 1, the values are viability, normalised (%) = 67.8; active.
For EPHB4 (EPH receptor B4) [SID405527533], technical replicate 2 the deposit lists viability, normalised (%) = 79.5; active.
With EPHB4 (EPH receptor B4) [SID405527533], technical replicate 3, the values are viability, normalised (%) = 85.1; inactive.
